Measured values as given in PubChem BioAssay (EPA / NIEHS).
Several values for one entry are separate records, joined by “and”; a condition that tells them apart may be missing. Identical values can stand only once. Inconclusive results, whose numbers are uncertain, are shown with a selection of clear calls. Where the call is inconclusive, the potency comes from a doubtful curve fit. The source holds several records for some structures; these can differ, active in one and inactive in another. Activity calls are given as the source filed them. How the source made its calls: active means hit-call score of the fitted dose curve at least 0.9, where 1 is the maximum; inconclusive means response in the unintended direction; inactive means score below 0.9.

Chains of the proteins cited; added tags and fusions are not shown.
UniProt P19785, whole entry, looked up: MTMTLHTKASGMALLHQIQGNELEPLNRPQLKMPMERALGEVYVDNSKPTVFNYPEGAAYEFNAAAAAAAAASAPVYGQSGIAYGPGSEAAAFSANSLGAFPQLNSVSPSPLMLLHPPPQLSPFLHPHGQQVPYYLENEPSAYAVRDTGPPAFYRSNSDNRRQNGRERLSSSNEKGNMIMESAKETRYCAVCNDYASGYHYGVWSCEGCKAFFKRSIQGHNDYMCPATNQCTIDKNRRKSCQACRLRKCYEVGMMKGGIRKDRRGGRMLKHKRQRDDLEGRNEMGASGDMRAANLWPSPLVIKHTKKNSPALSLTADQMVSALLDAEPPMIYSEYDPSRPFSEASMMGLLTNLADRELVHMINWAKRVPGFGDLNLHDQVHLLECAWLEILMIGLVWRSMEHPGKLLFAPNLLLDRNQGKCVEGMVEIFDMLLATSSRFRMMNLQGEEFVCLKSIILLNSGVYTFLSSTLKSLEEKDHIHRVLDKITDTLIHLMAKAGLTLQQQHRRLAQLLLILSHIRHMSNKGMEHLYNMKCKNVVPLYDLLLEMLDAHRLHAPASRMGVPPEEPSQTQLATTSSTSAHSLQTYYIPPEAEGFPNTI

molecular target: mouse Estrogen Receptor alpha (Era), Esr1 (gene 13982) (UniProt P19785); test: NVS_NR_mERa: NovaScreen (NVS) Nuclear Receptor Binding Assay for mouse Estrogen Receptor alpha (Era) (AID 2283378)
Experimental: NVS_NR_mERa is a biochemical, single-readout assay that uses extracted gene-proteins in a cell-free assay. Measurements were taken 18 hours after chemical dosing in a 96-well plate.NVS_NR_mERa is one of one assay component(s) measured or calculated from the NVS_NR_mERa assay. It is designed to make measurements of radioligand binding, a form of binding reporter, as detected with scintillation counting signals by Filter-based radiodetection technology.Data from the assay component NVS_NR_mERa was analyzed into 1 assay endpoint. This assay endpoint, NVS_NR_mERa, was analyzed in the positive analysis fitting direction relative to DMSO as the negative control and baseline of activity. Using a type of binding reporter, loss-of-signal activity can be used to understand changes in the binding as they relate to the gene Esr1. Furthermore, this assay endpoint can be referred to as a primary readout, because the performed assay has only produced 1 assay endpoint. To generalize the intended target to other relatable targets, this assay endpoint is annotated to the nuclear receptor intended target family, where the subfamily is steroidal.
Binding assays used specific radioligands (tritiated, iodinated) with non-radioactive competitive displacement ligands in agonist or antagonist protocols (as indicated) and various reference compounds and inhibitors to titrate specific binding to receptors and transporters. Most enzyme assays (CYPs, kinases, phosphatases, proteases, HDACs) used recombinant protein and specific substrates (fluorescence mostly, some colorimetric and radioactive) and inhibitors, followed by a biochemical separation of substrate and product. All assays for the biochemical HTS were initially run in duplicate at a single concentration (10 uM for CYP450 assays and 25 uM for all others). […] Each assay was run with positive and negative controls, and concurrent controls on every plate. The follow-up (secondary) screen tested active chemical-pairs in concentration series, as well as a few additional assays not tested in the primary screen, some selected negative inactives, and several cases re-run in the concentration series for confirmatory purposes.

Structure (SMILES) | AC50 | outcome
COP(=S)(OC)Oc1ccc(Sc2ccc(OP(=S)(OC)OC)cc2)cc1 | inconclusive: 1.35 µM | –
Clc1ccc(C2(Cn3cncn3)CC(Br)CO2)c(Cl)c1 (stereo not given) | inconclusive: 6.85 µM | –
Cc1ccc2c(c1N)C(=O)c1ccccc1C2=O | inconclusive: 3.91 µM | –
O=S(=O)(c1ccc(Cl)cc1)c1ccc(Cl)cc1 | inconclusive: 1.6 µM | –
C=CC1(C)OC(=O)N(c2cc(Cl)cc(Cl)c2)C1=O (stereo not given) | inconclusive: 1.75 µM and active: 10.1 µM | inactive
C[C@]12C=CC3=C4CCC(=O)C=C4CC[C@H]3[C@@H]1CC[C@@H]2O | – | inactive
CCOc1ccc(N)cc1 | inconclusive: 6.78 µM | –
COP(=S)(OC)Oc1ccc([N+](=O)[O-])cc1 | – | inactive
CC(C)COC(=O)c1ccccc1C(=O)OCC(C)C | inconclusive: 25 µM | –
C=CC#N | – | inactive
COC(=O)c1ccccc1C(=O)OC | – | inactive
C=CC(=O)NCNC(=O)C=C | – | inactive
O=S(=O)(c1ccc(O)cc1)c1ccc(O)cc1 | – | inactive
C=CC(=O)OCC(CC)(COC(=O)C=C)COC(=O)C=C | inconclusive: 0.601 µM | –
CO/N=C(/C1=NOCCO1)c1ccccc1Oc1ncnc(Oc2ccccc2Cl)c1F | inconclusive: 1.04 µM | –
ClC(Cl)=C(c1ccc(Cl)cc1)c1ccc(Cl)cc1 | inconclusive: 25 µM | –
CO/C=C(/C(=O)OC)c1ccccc1COc1cccc(C(F)(F)F)n1 | inconclusive: 25 µM | –
c1cc(OCC2CO2)ccc1Cc1ccc(OCC2CO2)cc1 (stereo not given) | inconclusive: 25 µM | –
CCC1(c2ccc(N)cc2)CCC(=O)NC1=O (stereo not given) | inconclusive: 1.76 µM | –

Structure (SMILES) | AC50 | outcome
CCCCC(CC)C(=O)Cl (stereo not given) | inconclusive: 25 µM | –
Oc1ccc(Cl)cc1Cl | – | inactive
O=C1C(Cl)=C(Cl)C(=O)C(Cl)=C1Cl | inconclusive: 11.5 µM | –
Clc1ccc(C(c2ccccc2Cl)C(Cl)(Cl)Cl)cc1 (stereo not given) | active: 0.0517 µM | inactive
C[C@]12CCC(=O)C(O)=C1CC[C@@H]1[C@@H]2CC[C@]2(C)C(=O)CC[C@@H]12 | inconclusive: 25 µM | –
O=S(=O)(c1ccc(Cl)cc1)c1cc(Cl)c(Cl)cc1Cl | inconclusive: 25 µM | –
CCOP(=O)(OCC)OC(=CCl)c1ccc(Cl)cc1Cl | inconclusive: 47.1 µM | –
O=S(=O)(Oc1ccc(Cl)cc1)c1ccc(Cl)cc1 | – | inactive
CC(C)OC(=O)Nc1ccccc1 | active: 5.18 µM | –
CCCCOP(=O)(O)OCCCC | inconclusive: 25 µM | –
CC(C)(c1ccc(OCC2CO2)cc1)c1ccc(OCC2CO2)cc1 (stereo not given) | inconclusive: 0.554 µM | –
Nc1ccc(Br)cc1 | – | inactive
CCC[CH2][Sn]([Cl])([Cl])[CH2]CCC | – | inactive
CC1(C)CCC(Cc2ccc(Cl)cc2)C1(O)Cn1cncn1 (stereo not given) | – | inactive
CCCCCCCCCCCCCCCC[n+]1ccccc1 | inconclusive: 1.37 µM and inconclusive: 36.8 µM | –
Brc1ccc(Oc2ccccc2)cc1 | inconclusive: 25 µM | –
CCCCN(CCCC)SN(C)C(=O)Oc1cccc2c1OC(C)(C)C2 | – | inactive
CNC(=O)Oc1cccc2ccccc12 | – | inactive
O=C(CCl)Nc1ccccc1 | – | inactive
